Assay results reported in the supplement of paper PMC12595434, “Development of retinoid nuclear receptor pathway antagonists through targeting aldehyde dehydrogenase 1A3” (iScience, 2025).
The list shows a part of the results. The data scatter; read single values as rough.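 Many melting curves are irregular; where none melted, Tm was taken as 64 °C.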

The chains behind the UniProt entries cited, without tags or fusion partners. Where a name states a change or a piece, a line headed by the entry shows the natural chain unless it says otherwise.
UniProt Q96GG9: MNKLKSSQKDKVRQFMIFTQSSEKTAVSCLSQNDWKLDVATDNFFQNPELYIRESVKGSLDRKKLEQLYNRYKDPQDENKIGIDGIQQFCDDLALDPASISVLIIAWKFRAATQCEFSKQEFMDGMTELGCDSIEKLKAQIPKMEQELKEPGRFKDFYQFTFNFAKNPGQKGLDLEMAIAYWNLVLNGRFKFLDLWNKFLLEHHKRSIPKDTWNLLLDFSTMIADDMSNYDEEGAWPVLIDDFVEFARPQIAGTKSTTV
UniProt Q96FX7: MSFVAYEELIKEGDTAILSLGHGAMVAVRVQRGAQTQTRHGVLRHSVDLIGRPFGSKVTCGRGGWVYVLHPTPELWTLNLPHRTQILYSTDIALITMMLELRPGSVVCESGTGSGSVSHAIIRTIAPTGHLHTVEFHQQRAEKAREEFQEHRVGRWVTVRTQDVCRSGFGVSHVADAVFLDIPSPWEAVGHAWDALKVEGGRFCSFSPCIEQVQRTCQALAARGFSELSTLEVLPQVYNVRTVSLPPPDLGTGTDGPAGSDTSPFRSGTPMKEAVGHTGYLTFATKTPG
UniProt Q96G01: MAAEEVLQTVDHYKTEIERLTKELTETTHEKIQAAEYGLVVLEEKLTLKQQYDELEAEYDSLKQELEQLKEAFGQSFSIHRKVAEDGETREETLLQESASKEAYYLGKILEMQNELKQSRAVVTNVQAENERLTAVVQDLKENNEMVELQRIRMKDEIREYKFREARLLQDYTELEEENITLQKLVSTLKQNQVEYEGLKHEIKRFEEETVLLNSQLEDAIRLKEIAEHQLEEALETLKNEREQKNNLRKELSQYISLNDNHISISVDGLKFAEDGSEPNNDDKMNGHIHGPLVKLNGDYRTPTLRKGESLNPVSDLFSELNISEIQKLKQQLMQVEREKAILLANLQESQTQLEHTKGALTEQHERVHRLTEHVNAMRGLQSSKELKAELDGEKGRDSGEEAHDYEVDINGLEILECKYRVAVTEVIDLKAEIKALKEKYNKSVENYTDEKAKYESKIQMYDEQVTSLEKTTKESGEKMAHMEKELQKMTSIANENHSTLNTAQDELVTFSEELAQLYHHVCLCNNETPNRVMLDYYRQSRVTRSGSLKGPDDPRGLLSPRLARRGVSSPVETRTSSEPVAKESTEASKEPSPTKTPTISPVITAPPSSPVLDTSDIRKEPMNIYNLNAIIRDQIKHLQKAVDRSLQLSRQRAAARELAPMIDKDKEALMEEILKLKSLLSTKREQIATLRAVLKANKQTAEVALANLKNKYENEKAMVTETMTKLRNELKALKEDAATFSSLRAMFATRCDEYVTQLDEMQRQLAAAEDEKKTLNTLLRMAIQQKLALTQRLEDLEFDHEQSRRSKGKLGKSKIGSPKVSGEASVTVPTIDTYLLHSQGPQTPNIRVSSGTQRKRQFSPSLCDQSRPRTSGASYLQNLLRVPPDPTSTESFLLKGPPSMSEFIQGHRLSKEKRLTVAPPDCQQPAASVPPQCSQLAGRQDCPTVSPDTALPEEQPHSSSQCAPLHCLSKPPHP
UniProt Q96LW4: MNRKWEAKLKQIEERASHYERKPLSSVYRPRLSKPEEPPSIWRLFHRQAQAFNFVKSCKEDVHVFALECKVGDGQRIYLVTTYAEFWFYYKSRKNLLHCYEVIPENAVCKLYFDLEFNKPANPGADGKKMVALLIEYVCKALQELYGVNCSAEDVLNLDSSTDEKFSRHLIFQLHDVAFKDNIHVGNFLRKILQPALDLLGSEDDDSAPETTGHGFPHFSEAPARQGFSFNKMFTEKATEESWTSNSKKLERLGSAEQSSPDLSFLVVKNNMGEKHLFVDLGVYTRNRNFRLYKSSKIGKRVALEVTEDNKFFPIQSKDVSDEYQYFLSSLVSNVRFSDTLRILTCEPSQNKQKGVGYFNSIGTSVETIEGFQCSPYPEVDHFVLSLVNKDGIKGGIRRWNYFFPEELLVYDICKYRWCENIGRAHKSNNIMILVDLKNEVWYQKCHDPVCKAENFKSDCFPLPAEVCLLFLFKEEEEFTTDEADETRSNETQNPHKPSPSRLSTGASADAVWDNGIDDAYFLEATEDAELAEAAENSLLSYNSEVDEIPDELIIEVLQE
UniProt Q99471, whole entry: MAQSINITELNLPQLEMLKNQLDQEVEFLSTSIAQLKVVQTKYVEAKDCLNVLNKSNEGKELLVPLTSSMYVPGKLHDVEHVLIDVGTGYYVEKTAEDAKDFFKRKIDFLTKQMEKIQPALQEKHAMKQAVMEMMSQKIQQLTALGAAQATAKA
UniProt Q96HE9: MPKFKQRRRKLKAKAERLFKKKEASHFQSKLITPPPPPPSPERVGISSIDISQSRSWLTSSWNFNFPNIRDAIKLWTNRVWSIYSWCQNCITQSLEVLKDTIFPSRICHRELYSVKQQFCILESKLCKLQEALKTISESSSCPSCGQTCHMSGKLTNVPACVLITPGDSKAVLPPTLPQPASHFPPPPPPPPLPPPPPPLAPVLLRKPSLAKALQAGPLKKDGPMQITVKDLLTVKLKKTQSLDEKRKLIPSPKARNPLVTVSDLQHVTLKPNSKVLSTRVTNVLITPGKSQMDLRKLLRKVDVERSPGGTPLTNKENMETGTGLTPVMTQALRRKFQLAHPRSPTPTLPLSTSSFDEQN
UniProt Q96II8: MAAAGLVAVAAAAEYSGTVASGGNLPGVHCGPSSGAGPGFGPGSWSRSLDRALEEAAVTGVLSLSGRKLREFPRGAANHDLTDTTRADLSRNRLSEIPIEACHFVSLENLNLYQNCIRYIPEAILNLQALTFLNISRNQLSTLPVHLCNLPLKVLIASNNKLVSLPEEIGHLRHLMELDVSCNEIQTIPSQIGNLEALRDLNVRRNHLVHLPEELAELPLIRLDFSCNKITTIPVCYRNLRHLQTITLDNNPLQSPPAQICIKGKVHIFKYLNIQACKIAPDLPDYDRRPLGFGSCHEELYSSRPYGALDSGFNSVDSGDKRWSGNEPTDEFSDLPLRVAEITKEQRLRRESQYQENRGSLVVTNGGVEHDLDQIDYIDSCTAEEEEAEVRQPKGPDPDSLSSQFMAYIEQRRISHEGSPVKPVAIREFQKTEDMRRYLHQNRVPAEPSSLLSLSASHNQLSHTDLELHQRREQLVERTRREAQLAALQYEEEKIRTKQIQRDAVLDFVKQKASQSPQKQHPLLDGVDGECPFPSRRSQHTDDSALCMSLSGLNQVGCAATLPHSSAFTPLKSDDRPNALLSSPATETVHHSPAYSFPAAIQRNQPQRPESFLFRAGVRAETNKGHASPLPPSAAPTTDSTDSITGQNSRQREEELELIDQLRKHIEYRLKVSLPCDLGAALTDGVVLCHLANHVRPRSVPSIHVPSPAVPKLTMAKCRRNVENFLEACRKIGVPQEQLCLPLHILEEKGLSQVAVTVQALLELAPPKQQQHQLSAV
UniProt Q96FQ6: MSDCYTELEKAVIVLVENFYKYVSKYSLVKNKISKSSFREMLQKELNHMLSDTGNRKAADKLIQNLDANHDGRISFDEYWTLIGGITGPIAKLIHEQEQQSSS
UniProt Q96HW7, whole entry: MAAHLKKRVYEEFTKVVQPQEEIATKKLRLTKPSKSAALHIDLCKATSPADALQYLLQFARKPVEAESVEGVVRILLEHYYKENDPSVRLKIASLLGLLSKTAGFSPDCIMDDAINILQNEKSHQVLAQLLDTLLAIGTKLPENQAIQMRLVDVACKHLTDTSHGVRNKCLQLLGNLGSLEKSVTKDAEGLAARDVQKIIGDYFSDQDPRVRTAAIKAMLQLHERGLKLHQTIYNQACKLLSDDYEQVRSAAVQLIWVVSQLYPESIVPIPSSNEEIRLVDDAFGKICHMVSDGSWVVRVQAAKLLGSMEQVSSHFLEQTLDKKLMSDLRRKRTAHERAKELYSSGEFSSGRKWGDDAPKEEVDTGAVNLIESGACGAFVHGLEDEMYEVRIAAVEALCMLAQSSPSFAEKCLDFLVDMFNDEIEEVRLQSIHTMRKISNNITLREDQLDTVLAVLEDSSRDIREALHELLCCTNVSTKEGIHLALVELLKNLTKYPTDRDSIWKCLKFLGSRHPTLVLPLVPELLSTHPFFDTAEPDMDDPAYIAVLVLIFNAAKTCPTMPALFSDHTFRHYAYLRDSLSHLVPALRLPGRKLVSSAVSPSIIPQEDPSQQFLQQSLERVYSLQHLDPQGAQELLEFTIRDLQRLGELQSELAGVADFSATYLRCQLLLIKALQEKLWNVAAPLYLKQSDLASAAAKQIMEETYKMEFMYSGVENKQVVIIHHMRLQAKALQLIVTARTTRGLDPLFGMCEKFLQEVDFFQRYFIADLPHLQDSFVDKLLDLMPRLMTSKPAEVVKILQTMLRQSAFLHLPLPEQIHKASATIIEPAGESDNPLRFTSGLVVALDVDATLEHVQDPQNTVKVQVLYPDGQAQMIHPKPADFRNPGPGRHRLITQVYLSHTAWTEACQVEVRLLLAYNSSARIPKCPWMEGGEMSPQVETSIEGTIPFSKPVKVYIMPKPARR
UniProt Q96RN5: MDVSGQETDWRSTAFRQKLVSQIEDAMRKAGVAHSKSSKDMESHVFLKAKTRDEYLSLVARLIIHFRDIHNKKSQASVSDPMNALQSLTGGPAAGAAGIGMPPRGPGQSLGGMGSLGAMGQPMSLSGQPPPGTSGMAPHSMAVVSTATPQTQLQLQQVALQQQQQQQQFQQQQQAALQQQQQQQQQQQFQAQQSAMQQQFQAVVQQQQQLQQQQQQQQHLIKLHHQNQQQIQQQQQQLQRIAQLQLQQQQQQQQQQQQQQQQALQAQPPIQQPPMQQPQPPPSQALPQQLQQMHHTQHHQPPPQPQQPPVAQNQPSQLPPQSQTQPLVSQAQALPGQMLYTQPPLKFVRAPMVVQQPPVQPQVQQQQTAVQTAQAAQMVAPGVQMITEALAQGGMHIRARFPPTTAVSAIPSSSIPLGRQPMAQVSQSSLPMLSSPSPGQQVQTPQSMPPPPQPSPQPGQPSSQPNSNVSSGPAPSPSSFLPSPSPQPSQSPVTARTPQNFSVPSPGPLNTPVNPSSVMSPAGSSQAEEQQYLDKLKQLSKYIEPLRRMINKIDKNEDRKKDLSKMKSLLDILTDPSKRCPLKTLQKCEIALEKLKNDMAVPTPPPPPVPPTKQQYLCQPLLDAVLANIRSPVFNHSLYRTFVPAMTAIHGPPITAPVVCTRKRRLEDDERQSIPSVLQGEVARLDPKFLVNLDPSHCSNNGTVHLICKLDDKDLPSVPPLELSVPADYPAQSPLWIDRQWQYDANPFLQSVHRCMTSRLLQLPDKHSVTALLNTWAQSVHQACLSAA
UniProt Q96JJ3: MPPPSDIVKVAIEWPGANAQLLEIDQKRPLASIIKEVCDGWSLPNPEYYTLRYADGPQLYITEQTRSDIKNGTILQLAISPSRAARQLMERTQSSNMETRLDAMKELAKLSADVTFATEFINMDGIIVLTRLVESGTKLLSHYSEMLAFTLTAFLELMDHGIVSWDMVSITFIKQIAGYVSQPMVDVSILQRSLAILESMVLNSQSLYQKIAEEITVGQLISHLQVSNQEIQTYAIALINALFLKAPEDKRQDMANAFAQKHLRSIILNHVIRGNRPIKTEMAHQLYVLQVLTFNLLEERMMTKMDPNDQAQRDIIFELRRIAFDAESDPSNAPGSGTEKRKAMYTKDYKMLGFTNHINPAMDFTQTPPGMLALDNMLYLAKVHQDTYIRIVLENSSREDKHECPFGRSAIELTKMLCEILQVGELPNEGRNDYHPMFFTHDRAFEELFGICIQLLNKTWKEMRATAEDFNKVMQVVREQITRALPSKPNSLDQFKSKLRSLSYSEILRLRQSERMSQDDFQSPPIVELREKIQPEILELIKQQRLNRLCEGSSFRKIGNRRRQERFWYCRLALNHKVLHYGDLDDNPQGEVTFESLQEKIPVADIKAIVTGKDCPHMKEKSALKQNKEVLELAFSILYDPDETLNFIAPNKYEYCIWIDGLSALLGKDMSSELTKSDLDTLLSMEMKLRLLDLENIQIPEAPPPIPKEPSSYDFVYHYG
UniProt Q99536: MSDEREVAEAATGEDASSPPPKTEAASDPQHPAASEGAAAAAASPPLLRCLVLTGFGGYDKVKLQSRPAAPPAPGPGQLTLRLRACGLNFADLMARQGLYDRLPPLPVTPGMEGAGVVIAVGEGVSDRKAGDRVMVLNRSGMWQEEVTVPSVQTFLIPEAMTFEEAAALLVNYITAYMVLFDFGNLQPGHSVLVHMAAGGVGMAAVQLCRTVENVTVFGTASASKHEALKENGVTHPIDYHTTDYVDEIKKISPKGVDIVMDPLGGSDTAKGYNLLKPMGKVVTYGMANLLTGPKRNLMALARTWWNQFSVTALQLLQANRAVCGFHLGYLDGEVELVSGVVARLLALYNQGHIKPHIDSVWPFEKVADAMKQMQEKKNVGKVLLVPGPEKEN
UniProt Q96HR3: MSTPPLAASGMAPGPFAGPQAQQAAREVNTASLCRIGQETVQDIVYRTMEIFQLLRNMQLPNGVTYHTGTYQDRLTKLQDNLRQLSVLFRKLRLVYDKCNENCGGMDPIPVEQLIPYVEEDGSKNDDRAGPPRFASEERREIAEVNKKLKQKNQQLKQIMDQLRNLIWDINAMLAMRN

Compound: CCc1cnccc1C(=O)Nc1cc2c(cc1F)NC(=O)CC2
Assay: melting temperature shift (DMSO Tm minus MBE1-treated Tm) in cellular thermal proteome profiling; higher = less thermal stabilization by MBE1 (negative = stabilized by MBE1)
Details: A375

| Target | melting temperature shift (MBE1 concentration: 100 nM) | melting temperature shift (MBE1 concentration: 1 uM) |
| --- | --- | --- |
| OXNAD1 (UniProt Q96HP4) | 1.92 °C | 2.75 °C |
| TMA16 (UniProt Q96EY4) | -0.981 °C | 1.29 °C |
| DCUN1D1 (UniProt Q96GG9) | 0.25 °C | 0.256 °C |
| UniProt Q96NE9 | 0.0488 °C | -0.342 °C |
| VPS50 (UniProt Q96JG6) | 0.0183 °C | -0.44 °C |
| TRMT61A (UniProt Q96FX7) | -0.0177 °C | -0.421 °C |
| ERBB2IP (UniProt Q96RT1) | 0.946 °C | 0.372 °C |
| UniProt Q96QT4 | -7.49 °C | -2.71 °C |
| ERO1A (UniProt Q96HE7) | -0.738 °C | -0.208 °C |
| SCLY (UniProt Q96I15) | -1.37 °C | 0.716 °C |
| BICD1 (UniProt Q96G01) | -0.286 °C | -0.259 °C |
| UniProt Q96T23 | -1.86 °C | -0.679 °C |
| TOE1 (UniProt Q96GM8) | -2.13 °C | -0.121 °C |
| UniProt Q96LW4 | -0.115 °C | -0.365 °C |
| ZC3HAV1L (UniProt Q96H79) | 1.28 °C | -0.128 °C |
| VPS35 (UniProt Q96QK1) | -0.642 °C | 0.55 °C |
| UniProt Q96EM0 | -0.912 °C | 0.822 °C |
| PFDN5 (UniProt Q99471) | -0.961 °C | -1.63 °C |
| DOCK7 (UniProt Q96N67) | -0.565 °C | -0.205 °C |
| ADO (UniProt Q96SZ5) | -1.41 °C | -1.97 °C |
| IFT74 (UniProt Q96LB3) | -1.14 °C | -0.86 °C |
| UniProt Q96FF9 | -0.0335 °C | 1.18 °C |
| LTV1 (UniProt Q96GA3) | 0.904 °C | 0.556 °C |

| Target | melting temperature shift (MBE1 concentration: 100 nM) | melting temperature shift (MBE1 concentration: 1 uM) |
| --- | --- | --- |
| UniProt Q96HE9 | 1.04 °C | 0.574 °C |
| MYO19 (UniProt Q96H55) | 0.299 °C | 0.177 °C |
| UniProt Q96QE3 | -0.0192 °C | -0.711 °C |
| UniProt Q96FH0 | -0.215 °C | 1.3 °C |
| YME1L1 (UniProt Q96TA2) | -0.442 °C | -0.194 °C |
| C16ORF58 (UniProt Q96GQ5) | -0.268 °C | -0.174 °C |
| PTCD3 (UniProt Q96EY7) | 0.775 °C | 0.311 °C |
| LRCH3 (UniProt Q96II8) | -0.743 °C | -0.499 °C |
| SRPK1 (UniProt Q96SB4) | 0.44 °C | 0.867 °C |
| SCRN2 (UniProt Q96FV2) | 0.452 °C | -0.171 °C |
| DAZAP1 (UniProt Q96EP5) | -0.496 °C | 0.789 °C |
| KCTD15 (UniProt Q96SI1) | -1.09 °C | 1.12 °C |
| CLCC1 (UniProt Q96S66) | -2.88 °C | -2.16 °C |
| VPS13A (UniProt Q96RL7) | -0.439 °C | 0.531 °C |
| NAF1 (UniProt Q96HR8) | -1.56 °C | 0.055 °C |
| CFAP36 (UniProt Q96G28) | -1.31 °C | -1.55 °C |
| PANX1 (UniProt Q96RD7) | -2.84 °C | -4.59 °C |
| S100A16 (UniProt Q96FQ6) | -2.06 °C | -2.34 °C |
| UniProt Q96T58 | -1.36 °C | -0.468 °C |
| FMNL2 (UniProt Q96PY5) | 1.62 °C | 0.775 °C |
| VPS39 (UniProt Q96JC1) | 0.677 °C | 0 °C |
| UniProt Q96JQ2 | -0.336 °C | 0.305 °C |
| MRPS24 (UniProt Q96EL2) | -0.281 °C | -0.501 °C |

Shown as tab-separated lines: entries from further up
Target	melting temperature shift (MBE1 concentration: 100 nM)	melting temperature shift (MBE1 concentration: 1 uM)
DOCK7 (UniProt Q96N67)	-0.565 °C	-0.205 °C
ADO (UniProt Q96SZ5)	-1.41 °C	-1.97 °C
IFT74 (UniProt Q96LB3)	-1.14 °C	-0.86 °C
UniProt Q96FF9	-0.0335 °C	1.18 °C
LTV1 (UniProt Q96GA3)	0.904 °C	0.556 °C
UniProt Q96HE9	1.04 °C	0.574 °C
MYO19 (UniProt Q96H55)	0.299 °C	0.177 °C
UniProt Q96QE3	-0.0192 °C	-0.711 °C
UniProt Q96FH0	-0.215 °C	1.3 °C
YME1L1 (UniProt Q96TA2)	-0.442 °C	-0.194 °C
C16ORF58 (UniProt Q96GQ5)	-0.268 °C	-0.174 °C
PTCD3 (UniProt Q96EY7)	0.775 °C	0.311 °C
LRCH3 (UniProt Q96II8)	-0.743 °C	-0.499 °C
SRPK1 (UniProt Q96SB4)	0.44 °C	0.867 °C
SCRN2 (UniProt Q96FV2)	0.452 °C	-0.171 °C
DAZAP1 (UniProt Q96EP5)	-0.496 °C	0.789 °C
KCTD15 (UniProt Q96SI1)	-1.09 °C	1.12 °C
CLCC1 (UniProt Q96S66)	-2.88 °C	-2.16 °C
VPS13A (UniProt Q96RL7)	-0.439 °C	0.531 °C

The list goes on.

| Target | melting temperature shift (MBE1 concentration: 100 nM) | melting temperature shift (MBE1 concentration: 1 uM) |
| --- | --- | --- |
| PSMD1 (UniProt Q99460) | -0.701 °C | 1.14 °C |
| TRIM11 (UniProt Q96F44) | -0.555 °C | -0.739 °C |
| UniProt Q96N11 | 0.0939 °C | -3.3 °C |
| UniProt Q96G97 | 0.523 °C | 1.5 °C |
| INTS4 (UniProt Q96HW7) | -0.456 °C | 0.188 °C |
| STAMBPL1 (UniProt Q96FJ0) | -0.0183 °C | -0.269 °C |
| UniProt Q96FL9 | 0.0488 °C | -0.524 °C |
| ZFYVE19 (UniProt Q96K21) | -0.659 °C | 0.554 °C |
| MRPL53 (UniProt Q96EL3) | -1.38 °C | 4.11 °C |
| LYSMD1 (UniProt Q96S90) | -1.43 °C | 0.0611 °C |
| MED15 (UniProt Q96RN5) | -0.391 °C | 0.916 °C |
| ELMO2 (UniProt Q96JJ3) | 0.198 °C | -0.0329 °C |
| BTF3L4 (UniProt Q96K17) | -0.967 °C | -1.59 °C |
| VAT1 (UniProt Q99536) | -1.15 °C | -0.91 °C |
| EHMT2 (UniProt Q96KQ7) | -0.583 °C | -0.198 °C |
| CDK5RAP2 (UniProt Q96SN8) | -0.0518 °C | -0.72 °C |
| TXNDC15 (UniProt Q96J42) | -1.29 °C | 0.556 °C |
| AHCYL2 (UniProt Q96HN2) | -0.715 °C | -0.268 °C |
| FUBP3 (UniProt Q96I24) | -0.318 °C | -0.65 °C |
| UniProt Q96HR3 | 0.83 °C | 0.525 °C |
| GFM1 (UniProt Q96RP9) | 0.574 °C | 0.299 °C |
| MMAB (UniProt Q96EY8) | -0.604 °C | 0.531 °C |
| MBOAT7 (UniProt Q96N66) | -0.532 °C | 0.611 °C |
